Laboratory results as given in patent US20130039857A1, “METHODS OF SUPPRESSING CANCER, INCREASING WEIGHT LOSS AND/OR INCREASING INSULIN SENSITIVITY” (priority 2010, published 2013).
No constants are given. Whether binding was seen depends on the method and setting. In cells and extracts the contact can be indirect. Some binding calls cover weakened binding; strength is not graded here.

Protein sequences, listed by entry. Tags and fused reporters are not part of them. Lines headed by an entry give the natural chain unless they say otherwise; changes in a name come on top. Chains listed by the source or under a name are the forms on record and can include a tag or linker.
Fyn kinase (endogenous, in gastrocnemius skeletal muscle and 3T3L1 adipocyte extracts) (P39688, form named): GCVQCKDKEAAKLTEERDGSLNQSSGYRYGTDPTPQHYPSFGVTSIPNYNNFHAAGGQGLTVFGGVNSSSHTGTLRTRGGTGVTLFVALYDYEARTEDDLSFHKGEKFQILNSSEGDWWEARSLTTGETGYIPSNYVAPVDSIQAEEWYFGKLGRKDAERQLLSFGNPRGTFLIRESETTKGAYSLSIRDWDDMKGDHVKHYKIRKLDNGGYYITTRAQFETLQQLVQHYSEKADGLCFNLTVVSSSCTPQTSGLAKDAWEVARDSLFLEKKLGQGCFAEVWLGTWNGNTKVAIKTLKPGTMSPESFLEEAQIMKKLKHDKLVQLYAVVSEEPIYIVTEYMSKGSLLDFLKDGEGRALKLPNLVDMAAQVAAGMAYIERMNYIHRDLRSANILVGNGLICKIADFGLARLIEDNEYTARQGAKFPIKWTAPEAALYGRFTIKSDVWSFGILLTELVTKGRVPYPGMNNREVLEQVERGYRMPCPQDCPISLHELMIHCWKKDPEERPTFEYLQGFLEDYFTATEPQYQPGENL

Biological target: Fyn kinase (endogenous, in gastrocnemius skeletal muscle and 3T3L1 adipocyte extracts) (mouse) (UniProt P39688)
Test: co-immunoprecipitation: extracts precipitated with rabbit polyclonal Fyn antibody, blotted with monoclonal LKB1 antibody

B1: LKB1 (endogenous, in skeletal muscle and 3T3L1 adipocyte extracts) (enzyme, mouse, UniProt Q9WTK7 1-433, looked up)
chain: MDVADPEPLGLFSEGELMSVGMDTFIHRIDSTEVIYQPRRKRAKLIGKYLMGDLLGEGSYGKVKEVLDSETLCRRAVKILKKKKLRRIPNGEANVKKEIQLLRRLRHRNVIQLVDVLYNEEKQKMYMVMEYCVCGMQEMLDSVPEKRFPVCQAHGYFRQLIDGLEYLHSQGIVHKDIKPGNLLLTTNGTLKISDLGVAEALHPFAVDDTCRTSQGSPAFQPPEIANGLDTFSGFKVDIWSAGVTLYNITTGLYPFEGDNIYKLFENIGRGDFTIPCDCGPPLSDLLRGMLEYEPAKRFSIRQIRQHSWFRKKHPLAEALVPIPPSPDTKDRWRSMTVVPYLEDLHGRAEEEEEEDLFDIEDGIIYTQDFTVPGQVLEEEVGQNGQSHSLPKAVCVNGTEPQLSSKVKPEGRPGTANPARKVCSSNKIRRLSAC
binding: binds
